Reference: patent publication US5410052A, “Symmetrical and unsymmetrical polyalkylamine metal complexes for ligand extraction and generation” (The Regents of the University of California, priority 1990, dated 1995)

What was measured:
[1] = Coulometry of cobalt PAA carrier compounds (oxygen release); settings: cobalt complex; for O2 Rate: EApp 0.70 V
Excerpt: Coulometry techniques allow the determination of the relative energetics and rates of oxygen release. For such experiments, solutions similarly to those outlined above for cyclic voltammetry are placed in a three-electrode electrolysis cell equipped with a Clark-type oxygen probe. […] Each oxidizing potential is held constant with respect to a silver-silver chloride reference electrode. The resulting current is integrated over time to yield the amount of carrier compounded oxidized. By employing the same electrode geometry, solution volume, stirring rate, information about the relative rate and amount of oxygen release (the "O2 rate") can be determined, at a particular applied cell voltage. Eapp from the response of the oxygen probe.
The expected amount of oxygen evolved is given one-half the total integrated charge through the cell divided by F=96,484 C/mole, since theoretically, two electrons are required to oxidize the two cobalt ions and release one oxygen molecule. The ratio of this figure to the actual amount of oxygen produced is "% O2 max", at the minimum voltage, Vmin, required to produce oxygen. In additional, the "voltage window" the difference between the anodic oxygen evolution and cathodic reduction potentials is measured.
A typical cyclic voltammetry trace, for the oxygenated Co(II) complex of PAA No. 72 using a glassy carbon electrode, is shown in FIG. 6. Coulometry data for several cobalt carrier compounds is summarized in Table V. The couliometric data reported on the average of three to five experiments. The standard deviations for O2 rate were +/=0.36 microliters per minute.

[2] = Demonstration unit results for cobalt carrier compounds; settings: cobalt complex
Excerpt: These components together form a sealed system containing a fixed volume of ligand carrier and carrier fluid. The apparatus shown in FIG. 9 is generally of a type generally intended for relatively larger scale production of oxygen. The electrochemical cell comprises twenty parallel TEFLON® (polytetrafluoroethylene, a trademark of the DuPont Company, Wilmington, Del.) plates having sputtered gold surfaces, between which the carrier fluid id directed, in parallel. The plates are 3 mm thick and spaced at a distance of 1 mm. An individual place is 62.5 cm long and 8 cm wide. When stacked in a parallel plate arrangement, the twenty layers have a total height of 8 cm. The use of a bipolar cell such as this enables the use of higher voltages at proportionately small currents than would be required to operate a single anode, single cathode cell of the same surface area. The electrochemical cell is connected to a voltage supply capable of providing 20 amps at 0.1 volt. The unloading station comprises one or more (one is shown) hollow fiber cartridges 1 inch in diameter and 43 inches in length containing hollow fibers which consist of porous polysulfone with an interior silicon rubber skin. The surface area of the hollow fibers is 0.25 m^2. When more than one such cartridge is used, they are arranged for parallel flow to a commensurate fraction of the total carrier fluid flow through the apparatus. Polyvinylchloride or polypropylene piping is used to connect various inlet and outlet ports. The outlet port of the first electrode compartment is connected to the inlet port of the small of the two hollow fiber cartridges so that the fluid which exists from the first electrode compartment enters the interior or the hollow fibers. This outlet port of the hollow fiber cartridge is connected to the inlet port of the second electrode compartment. The inlet port of the first electrode compartment is connected to the outlet port of the ligand extracting station while the outlet port of the second electrode compartment is connected through a pump to the inlet port of the ligand extracting station. In the embodiment shown, the ligand extracting station comprises one or more (one is shown) hollow fiber cartridges 3 inches in diameter and 43 inches in length, arranged for simultaneous parallel flow through the cartridges when more than one is used. Each cartridge contains 660 hollow fibers made of porous polysulfone with an interior silicon rubber skin. The hollow fibers have a membrane surface area of 2.5 m^2 and an interior volume of 646 ml. The space surrounding the hollow fibers is in communication with the electrochemical cell, not the interior of the hollow filbers. A fluid containing the ligand which is being extracted passes through the interior of the hollow fibers.
Approximately 1 liter of the carrier fluid is present in the interior volume of the apparatus as described above and the ligand extracting station together. Carrier fluid containing the ligand carrier having a ligand bound thereto passes from the exit port of the ligand extracting station into the inlet port of the first electrode compartment where a redox reaction takes place in order to release the ligand carrier having a ligand bound thereto passes from the exist port of the ligand extracting station into the inlet port of the first electrode compartment where a redox reaction takes place in order to release the ligand from the ligand carrier. Free ligand, carrier fluid, and nonbinding-state ligand carrier pass from the exist port of the first electrode chamber into the ligand unloading station where ligand passes through the walls of the ligand-permeable membrane and is collected. In the particular illustration shown, oxygen passes directly in the space where it is being utilized. It is also possible to pass fluids or chemical reactants over the outside of the hollow fibers. […]

[3] = 75 mM PAA, 3380 mL/min, pH 5.0, 16 V (ten cell stock)
[4] = 75 mM PAA, 3380 mL/min, pH 5.0, 18 V (ten cell stock)
[5] = 100 mM PAA, 2000 mL/min, pH 7.0, 4 V (ten cell stock)
[6] = 100 mM PAA, 2000 mL/min, pH 7.0, 9 V (ten cell stock)

## c1ccc(CNCCNCCNCc2ccccn2)nc1 [compound 62]
[1]
  O2 Rate: 1.4 ± 0.1 µL/min
[2]; [3]
  EC O2 (electrochemical oxygen production rate): 72.4 mL/min
  Power consumed: 285 W/L/min.
  e-/O2 (electrons passed per molecule of O2 produced): 2.44
[2]; [4]
  EC O2 (electrochemical oxygen production rate): 94.5 mL/min
  Power consumed: 320 W/L/min.
  e-/O2 (electrons passed per molecule of O2 produced): 2.46

## c1ccc(CNCCCNCCCNCc2ccccn2)nc1 [compound 64]
[1]
  O2 Rate: 1.5 ± 0.2 µL/min
[1]; at the minimum voltage Vmin
  % O2 max: 42%
[2]; [5]
  EC O2 (electrochemical oxygen production rate): 20.3 mL/min
  Power consumed: 62 W/L/min.
  e-/O2 (electrons passed per molecule of O2 produced): 2.42
[2]; [6]
  EC O2 (electrochemical oxygen production rate): 72.2 mL/min
  Power consumed: 118 W/L/min.
  e-/O2 (electrons passed per molecule of O2 produced): 2.01
